{"sequences": {"note": "By UniProt entry, the sequences of proteins in these tests, tags left out. Residues count along the entry.", "UniProt P02751, residues 32-2477": "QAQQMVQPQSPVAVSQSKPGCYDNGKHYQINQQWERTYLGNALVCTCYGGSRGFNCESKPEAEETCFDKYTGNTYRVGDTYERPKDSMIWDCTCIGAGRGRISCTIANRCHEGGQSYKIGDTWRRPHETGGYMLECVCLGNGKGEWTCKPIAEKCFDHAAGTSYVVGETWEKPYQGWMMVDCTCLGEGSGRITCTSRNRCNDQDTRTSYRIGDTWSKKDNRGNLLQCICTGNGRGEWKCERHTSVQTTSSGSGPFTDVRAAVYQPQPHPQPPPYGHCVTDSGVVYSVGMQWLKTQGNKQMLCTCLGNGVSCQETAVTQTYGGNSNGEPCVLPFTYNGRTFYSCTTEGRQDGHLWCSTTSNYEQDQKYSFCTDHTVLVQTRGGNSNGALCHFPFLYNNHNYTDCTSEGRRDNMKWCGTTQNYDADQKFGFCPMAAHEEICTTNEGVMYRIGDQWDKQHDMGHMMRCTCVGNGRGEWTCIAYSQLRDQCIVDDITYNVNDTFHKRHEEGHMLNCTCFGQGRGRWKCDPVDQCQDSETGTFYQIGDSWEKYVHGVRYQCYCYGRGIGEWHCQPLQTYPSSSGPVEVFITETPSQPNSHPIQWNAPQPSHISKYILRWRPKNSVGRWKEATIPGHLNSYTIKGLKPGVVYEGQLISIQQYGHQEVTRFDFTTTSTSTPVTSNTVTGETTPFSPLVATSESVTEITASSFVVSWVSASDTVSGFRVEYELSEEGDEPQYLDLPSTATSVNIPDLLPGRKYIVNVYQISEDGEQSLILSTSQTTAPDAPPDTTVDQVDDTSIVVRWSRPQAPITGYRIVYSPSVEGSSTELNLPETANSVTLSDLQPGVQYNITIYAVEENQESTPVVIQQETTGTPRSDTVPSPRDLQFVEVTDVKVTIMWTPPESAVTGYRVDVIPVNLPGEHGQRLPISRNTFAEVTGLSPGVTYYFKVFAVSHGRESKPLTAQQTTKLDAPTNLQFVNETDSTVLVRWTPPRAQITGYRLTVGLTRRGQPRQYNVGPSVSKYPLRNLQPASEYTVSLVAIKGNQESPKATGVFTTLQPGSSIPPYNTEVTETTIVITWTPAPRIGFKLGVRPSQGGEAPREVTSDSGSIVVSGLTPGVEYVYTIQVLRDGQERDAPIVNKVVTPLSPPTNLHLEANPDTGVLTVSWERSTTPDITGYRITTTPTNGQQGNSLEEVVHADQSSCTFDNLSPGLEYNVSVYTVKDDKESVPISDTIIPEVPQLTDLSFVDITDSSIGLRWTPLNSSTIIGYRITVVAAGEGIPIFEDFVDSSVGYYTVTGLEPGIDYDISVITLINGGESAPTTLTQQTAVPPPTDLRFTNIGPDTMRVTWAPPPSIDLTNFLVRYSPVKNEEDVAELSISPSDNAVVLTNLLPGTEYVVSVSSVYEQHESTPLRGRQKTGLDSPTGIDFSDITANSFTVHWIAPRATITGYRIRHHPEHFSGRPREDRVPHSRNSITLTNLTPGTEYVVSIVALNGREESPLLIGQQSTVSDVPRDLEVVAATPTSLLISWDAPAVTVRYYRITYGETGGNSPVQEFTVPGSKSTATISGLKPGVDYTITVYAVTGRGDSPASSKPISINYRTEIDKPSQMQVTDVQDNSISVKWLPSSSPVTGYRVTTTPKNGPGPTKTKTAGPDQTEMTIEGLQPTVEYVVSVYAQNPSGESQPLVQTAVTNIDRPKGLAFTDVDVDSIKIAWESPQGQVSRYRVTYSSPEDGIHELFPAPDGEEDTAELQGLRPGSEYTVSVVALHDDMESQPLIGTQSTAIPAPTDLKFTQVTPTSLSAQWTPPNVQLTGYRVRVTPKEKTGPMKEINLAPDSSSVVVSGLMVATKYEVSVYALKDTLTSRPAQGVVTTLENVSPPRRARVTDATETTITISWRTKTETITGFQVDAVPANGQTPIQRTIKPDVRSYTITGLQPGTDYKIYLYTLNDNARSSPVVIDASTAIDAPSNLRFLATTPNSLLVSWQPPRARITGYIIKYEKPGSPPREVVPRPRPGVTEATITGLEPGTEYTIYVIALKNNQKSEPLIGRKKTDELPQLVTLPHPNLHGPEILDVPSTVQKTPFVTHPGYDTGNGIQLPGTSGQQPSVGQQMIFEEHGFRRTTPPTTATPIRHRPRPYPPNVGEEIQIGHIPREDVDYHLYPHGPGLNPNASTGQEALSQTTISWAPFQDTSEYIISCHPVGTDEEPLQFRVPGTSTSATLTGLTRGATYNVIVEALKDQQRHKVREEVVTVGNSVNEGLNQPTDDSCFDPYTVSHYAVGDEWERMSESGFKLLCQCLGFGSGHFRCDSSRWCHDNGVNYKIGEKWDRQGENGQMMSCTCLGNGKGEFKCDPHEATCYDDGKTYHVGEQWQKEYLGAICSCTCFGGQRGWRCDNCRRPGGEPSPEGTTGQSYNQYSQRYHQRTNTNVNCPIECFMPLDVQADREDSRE", "UniProt Q9NZQ7, residues 19-290": "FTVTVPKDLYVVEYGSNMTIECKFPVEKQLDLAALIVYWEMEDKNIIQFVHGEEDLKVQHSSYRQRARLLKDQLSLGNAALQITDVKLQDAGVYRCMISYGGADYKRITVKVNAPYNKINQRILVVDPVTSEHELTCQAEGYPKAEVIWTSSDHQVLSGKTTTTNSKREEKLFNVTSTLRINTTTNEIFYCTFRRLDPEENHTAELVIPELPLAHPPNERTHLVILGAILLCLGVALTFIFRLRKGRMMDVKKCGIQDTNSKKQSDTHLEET"}, "source": "patent US20250020650A1", "about": "“METHOD OF PREDICTING A PATIENT'S BENEFIT FROM THERAPY WITH AN IMMUNE CHECKPOINT INHIBITOR” (EBERHARD KARLS UNIVERSITAET TUEBINGEN MEDIZINISCHE FAKULTAET, priority 2021, published 2025)", "target": "fibronectin 1 (on NSCLC tumor cells) (human) (UniProt P02751)", "assay": "in situ proximity ligation assay on HOP-62 and NCI-H23 cells (anti-PD-L1 28-8, anti-fibronectin P1H11)", "note": "No constants are given. Whether binding was seen depends on the method and setting. Binding seen in cells or lysates may run through a third protein. Some results given as binding are weak or reduced against the parent protein; the word gives no strength.", "data": [{"substance": "programmed cell death 1 ligand 1 (PD-L1) (from UniProt Q9NZQ7 19-290)", "values": [{"measurement": "binding", "result": "binds"}]}]}
